# Data taken from patent publication US20220275049A1, “ANTIGENIC POLYPEPTIDES AND METHODS OF USE THEREOF” (AGENUS INC., priority 2019, published 2022).
# Like-named read-outs stand apart in the source and are kept apart here. Results are given in words; binding and its absence hold for the method and conditions named. A result given as binding can be weak or reduced; the word gives no strength.
# Tests used:
# [1] = target: biotinylated HLA-C*07:01 with β2m (human); assay: AlphaScreen, peptide titrated on biotinylated HLA + b2m; settings: remark: other sources report otherwise
# [2] = target: biotinylated HLA-C*07:01 with β2m (human); assay: as above
binding [1],binding [2],Binder
binds,–,VLLSPVPEL (here or on the partner: phosphoserine at 4; biotinylated) [VLLsPVPEL]
no binding,–,GPRSASLLSL (here or on the partner: phosphoserine at 6; phosphoserine at 9; biotinylated) [GPRSAsLLsL]
no binding,–,RQASIELPSM (here or on the partner: phosphoserine at 4; biotinylated) [RQAsIELPSM]
–,binds,VLFSSPPQM (phosphoserine at 5) [VLFSsPPQM]
no binding,–,TPRSPPLGLI (here or on the partner: phosphoserine at 4; biotinylated) [TPRsPPLGLI]
binds,–,RVASPTSGV (here or on the partner: phosphoserine at 4; biotinylated) [RVAsPTSGV]
no binding,–,SMTRSPPRV (here or on the partner: phosphoserine at 5; biotinylated) [SMTRsPPRV]
no binding,–,VLYSPQMAL (here or on the partner: phosphoserine at 4; biotinylated) [VLYsPQMAL]
–,binds,SIMSPEIQL (phosphoserine at 4) [SIMsPEIQL]
no binding,–,RPRPVSPSSL (here or on the partner: phosphoserine at 6; biotinylated) [RPRPVsPSSL]
no binding,–,VMIGSPKKV (here or on the partner: phosphoserine at 5; biotinylated) [VMIGsPKKV]
–,binds,RRSSFLQVF (phosphoserine at 4) [RRSsFLQVF]
–,binds,SLFSPQNTL (phosphoserine at 4) [SLFsPQNTL]
binds,–,SLFGGSVKL (here or on the partner: phosphoserine at 6; biotinylated) [SLFGGsVKL]
no binding,–,KLIDRTESL (here or on the partner: phosphoserine at 8; biotinylated) [KLIDRTEsL]
